No constants are given. Whether binding was seen depends on the method and setting. In cells and extracts the contact can be indirect. These calls come from enrichment with a bait or labelling near it, and not all partners need be listed. Values belong to the molecule of their own block, whether it stands above or below them.
Tests used:
[1] = target: N-Myc proto-oncogene protein (human (endogenous in SK-N-BE(2))) (UniProt P04198); experiment: affinity purification with mass spectrometry; endogenous co-IP: SK-N-BE(2) lysate (cells pretreated with MG132 10 μg/ml 6 h), N-Myc antibody overnight at 4 °C and protein A/G magnetic beads, normal IgG as negative control; wash 50 mM Tris, 150 mM NaCl, 0.5% Tween-20, pH 7.5; HPLC-MS/MS, label-free quantification, three replicates
[2] = target: 3xFLAG-N-Myc (full-length N-Myc with a 3xFLAG tag) (UniProt P04198); experiment: affinity purification with mass spectrometry; exogenous co-IP using FLAG beads: lysate of 293T cells stably expressing 3xFLAG-N-Myc (MG132 10 μg/ml 6 h), anti-FLAG magnetic beads overnight at 4 °C, 293T cells expressing 3xFLAG as negative control; wash 50 mM Tris, 150 mM NaCl, 0.5% Tween-20, pH 7.5; HPLC-MS/MS, three replicates
[3] = target: 3xFLAG-N-Myc (full-length N-Myc with a 3xFLAG tag) (UniProt P04198); experiment: affinity purification with mass spectrometry; exogenous co-IP using N-Myc antibody: lysate of 293T cells stably expressing 3xFLAG-N-Myc (MG132 10 μg/ml 6 h), N-Myc antibody overnight at 4 °C and protein A/G magnetic beads; IgG on the same lysate and N-Myc antibody on 3xFLAG lysate as negative controls; HPLC-MS/MS, three replicates

By UniProt entry, the sequences of proteins in these tests, tags left out.
UniProt P04198: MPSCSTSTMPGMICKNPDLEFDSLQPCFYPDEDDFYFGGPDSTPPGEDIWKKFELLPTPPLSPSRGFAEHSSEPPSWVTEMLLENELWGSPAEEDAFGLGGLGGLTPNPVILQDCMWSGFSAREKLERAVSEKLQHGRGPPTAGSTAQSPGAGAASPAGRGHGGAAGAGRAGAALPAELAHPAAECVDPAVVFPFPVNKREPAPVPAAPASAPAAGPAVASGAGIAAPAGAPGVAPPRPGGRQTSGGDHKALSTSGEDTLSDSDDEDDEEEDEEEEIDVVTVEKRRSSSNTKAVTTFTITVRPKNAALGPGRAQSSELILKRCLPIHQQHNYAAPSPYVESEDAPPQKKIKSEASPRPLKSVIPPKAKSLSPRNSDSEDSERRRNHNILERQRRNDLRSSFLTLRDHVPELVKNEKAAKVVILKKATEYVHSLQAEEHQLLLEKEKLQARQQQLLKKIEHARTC
UniProt Q7Z6Z7: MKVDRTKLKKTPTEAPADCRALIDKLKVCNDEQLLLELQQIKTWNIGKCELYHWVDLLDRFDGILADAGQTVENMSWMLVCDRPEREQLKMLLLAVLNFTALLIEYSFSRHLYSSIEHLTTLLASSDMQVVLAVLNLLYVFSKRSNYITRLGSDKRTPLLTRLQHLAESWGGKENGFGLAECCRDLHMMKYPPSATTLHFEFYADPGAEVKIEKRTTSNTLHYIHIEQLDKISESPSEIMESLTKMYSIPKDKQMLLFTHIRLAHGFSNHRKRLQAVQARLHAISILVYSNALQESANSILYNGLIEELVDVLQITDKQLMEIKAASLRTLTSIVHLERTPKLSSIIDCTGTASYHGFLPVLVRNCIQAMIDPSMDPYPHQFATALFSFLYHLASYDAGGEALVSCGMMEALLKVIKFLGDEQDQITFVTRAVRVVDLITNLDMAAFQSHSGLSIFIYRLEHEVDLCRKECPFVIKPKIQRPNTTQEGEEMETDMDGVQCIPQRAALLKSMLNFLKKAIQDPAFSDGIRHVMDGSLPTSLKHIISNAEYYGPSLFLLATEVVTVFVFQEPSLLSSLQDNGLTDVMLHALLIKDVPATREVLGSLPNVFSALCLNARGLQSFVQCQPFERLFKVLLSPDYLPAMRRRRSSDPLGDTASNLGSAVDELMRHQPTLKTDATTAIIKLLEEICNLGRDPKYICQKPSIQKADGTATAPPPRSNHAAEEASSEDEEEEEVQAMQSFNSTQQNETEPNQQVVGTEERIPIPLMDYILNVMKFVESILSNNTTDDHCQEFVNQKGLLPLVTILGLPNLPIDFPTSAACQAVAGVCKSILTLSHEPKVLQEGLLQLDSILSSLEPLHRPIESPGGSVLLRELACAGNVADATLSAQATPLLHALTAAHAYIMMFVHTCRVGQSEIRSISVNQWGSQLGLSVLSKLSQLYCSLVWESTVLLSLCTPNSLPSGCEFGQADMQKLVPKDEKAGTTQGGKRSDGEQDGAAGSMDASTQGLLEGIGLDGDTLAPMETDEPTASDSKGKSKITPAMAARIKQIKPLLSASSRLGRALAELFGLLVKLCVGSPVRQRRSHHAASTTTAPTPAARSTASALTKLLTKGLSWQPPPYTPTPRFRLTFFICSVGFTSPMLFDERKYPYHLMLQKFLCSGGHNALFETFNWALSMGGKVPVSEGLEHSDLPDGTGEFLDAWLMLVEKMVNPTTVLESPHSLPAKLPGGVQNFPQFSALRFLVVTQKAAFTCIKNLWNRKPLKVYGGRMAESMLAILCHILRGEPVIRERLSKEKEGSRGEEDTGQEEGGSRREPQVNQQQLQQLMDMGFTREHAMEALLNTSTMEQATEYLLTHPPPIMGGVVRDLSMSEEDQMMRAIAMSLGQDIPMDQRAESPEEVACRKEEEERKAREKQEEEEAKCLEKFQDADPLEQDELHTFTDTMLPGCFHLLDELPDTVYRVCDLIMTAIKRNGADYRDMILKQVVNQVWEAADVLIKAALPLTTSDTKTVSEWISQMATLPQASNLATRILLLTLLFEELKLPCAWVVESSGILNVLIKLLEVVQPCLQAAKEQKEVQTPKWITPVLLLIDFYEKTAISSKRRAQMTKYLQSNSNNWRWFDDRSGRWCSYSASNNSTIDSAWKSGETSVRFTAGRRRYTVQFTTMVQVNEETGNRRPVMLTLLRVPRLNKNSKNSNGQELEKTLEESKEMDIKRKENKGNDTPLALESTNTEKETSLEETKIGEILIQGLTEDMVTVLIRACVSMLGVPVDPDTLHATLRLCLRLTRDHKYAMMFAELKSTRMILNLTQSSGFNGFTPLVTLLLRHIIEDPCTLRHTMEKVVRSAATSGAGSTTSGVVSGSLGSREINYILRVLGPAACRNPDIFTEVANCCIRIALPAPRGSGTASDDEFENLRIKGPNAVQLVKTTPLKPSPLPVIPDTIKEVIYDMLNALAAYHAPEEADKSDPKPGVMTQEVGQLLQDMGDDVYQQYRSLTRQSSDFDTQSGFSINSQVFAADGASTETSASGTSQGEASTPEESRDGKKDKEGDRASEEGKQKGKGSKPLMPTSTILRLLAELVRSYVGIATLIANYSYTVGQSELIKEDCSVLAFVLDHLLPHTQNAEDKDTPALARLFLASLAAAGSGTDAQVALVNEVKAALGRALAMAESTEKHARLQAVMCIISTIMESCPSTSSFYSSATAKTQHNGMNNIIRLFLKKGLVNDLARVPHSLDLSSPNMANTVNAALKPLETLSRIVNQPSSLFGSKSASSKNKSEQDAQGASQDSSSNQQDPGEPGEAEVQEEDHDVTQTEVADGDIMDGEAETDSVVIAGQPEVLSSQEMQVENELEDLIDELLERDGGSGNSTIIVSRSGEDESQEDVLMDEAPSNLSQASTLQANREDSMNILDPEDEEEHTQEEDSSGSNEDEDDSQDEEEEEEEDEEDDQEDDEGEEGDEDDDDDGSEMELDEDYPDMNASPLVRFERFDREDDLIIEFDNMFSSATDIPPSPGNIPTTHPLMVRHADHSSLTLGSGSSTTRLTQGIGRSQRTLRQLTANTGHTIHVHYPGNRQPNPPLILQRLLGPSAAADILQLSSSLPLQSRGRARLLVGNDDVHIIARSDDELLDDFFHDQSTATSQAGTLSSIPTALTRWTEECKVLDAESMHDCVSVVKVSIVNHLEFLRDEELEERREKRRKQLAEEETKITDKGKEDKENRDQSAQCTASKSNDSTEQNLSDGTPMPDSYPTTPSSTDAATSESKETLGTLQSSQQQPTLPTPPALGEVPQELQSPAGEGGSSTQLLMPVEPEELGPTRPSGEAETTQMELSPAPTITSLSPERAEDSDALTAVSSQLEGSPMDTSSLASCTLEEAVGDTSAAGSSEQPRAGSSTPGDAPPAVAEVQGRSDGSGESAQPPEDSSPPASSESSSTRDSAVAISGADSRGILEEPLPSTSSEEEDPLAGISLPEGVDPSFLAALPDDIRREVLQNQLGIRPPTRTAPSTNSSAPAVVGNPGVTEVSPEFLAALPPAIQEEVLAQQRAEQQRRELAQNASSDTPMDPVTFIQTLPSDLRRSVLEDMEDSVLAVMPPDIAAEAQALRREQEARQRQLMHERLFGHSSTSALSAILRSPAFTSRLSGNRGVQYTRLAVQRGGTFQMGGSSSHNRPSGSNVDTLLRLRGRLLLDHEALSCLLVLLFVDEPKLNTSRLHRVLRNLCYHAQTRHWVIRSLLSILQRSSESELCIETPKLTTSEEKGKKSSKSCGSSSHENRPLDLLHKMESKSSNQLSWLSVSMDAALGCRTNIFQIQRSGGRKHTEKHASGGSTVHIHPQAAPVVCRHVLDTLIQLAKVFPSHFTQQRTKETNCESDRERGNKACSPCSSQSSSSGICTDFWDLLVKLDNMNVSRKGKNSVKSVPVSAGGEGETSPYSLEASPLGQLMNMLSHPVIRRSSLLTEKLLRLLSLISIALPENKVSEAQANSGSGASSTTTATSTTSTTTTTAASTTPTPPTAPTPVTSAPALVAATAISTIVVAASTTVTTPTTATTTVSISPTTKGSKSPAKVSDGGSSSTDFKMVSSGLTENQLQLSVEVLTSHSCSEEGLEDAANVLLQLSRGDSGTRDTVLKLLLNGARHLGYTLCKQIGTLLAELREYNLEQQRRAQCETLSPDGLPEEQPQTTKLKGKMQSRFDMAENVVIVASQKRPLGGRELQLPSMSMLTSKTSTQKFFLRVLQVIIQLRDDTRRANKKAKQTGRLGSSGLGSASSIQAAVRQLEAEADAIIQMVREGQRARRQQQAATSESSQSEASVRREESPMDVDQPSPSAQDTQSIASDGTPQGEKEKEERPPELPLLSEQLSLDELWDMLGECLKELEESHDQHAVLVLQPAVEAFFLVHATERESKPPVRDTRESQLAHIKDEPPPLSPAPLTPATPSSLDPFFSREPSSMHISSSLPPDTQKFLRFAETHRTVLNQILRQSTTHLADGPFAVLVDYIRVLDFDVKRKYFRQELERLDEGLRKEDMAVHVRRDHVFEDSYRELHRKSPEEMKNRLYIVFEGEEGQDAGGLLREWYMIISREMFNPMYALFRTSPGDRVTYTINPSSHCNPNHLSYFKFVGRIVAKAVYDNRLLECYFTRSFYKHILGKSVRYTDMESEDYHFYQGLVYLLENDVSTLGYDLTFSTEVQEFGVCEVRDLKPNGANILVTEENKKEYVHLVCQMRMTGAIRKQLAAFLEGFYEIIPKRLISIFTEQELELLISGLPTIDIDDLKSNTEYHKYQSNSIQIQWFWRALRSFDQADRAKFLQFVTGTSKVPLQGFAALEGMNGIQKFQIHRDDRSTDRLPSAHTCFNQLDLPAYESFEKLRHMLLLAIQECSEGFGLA
UniProt P61244: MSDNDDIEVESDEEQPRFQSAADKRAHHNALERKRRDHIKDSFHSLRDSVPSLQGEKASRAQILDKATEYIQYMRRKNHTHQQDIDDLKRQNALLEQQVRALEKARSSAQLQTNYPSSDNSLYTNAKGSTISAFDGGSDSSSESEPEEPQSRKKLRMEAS
UniProt P25786: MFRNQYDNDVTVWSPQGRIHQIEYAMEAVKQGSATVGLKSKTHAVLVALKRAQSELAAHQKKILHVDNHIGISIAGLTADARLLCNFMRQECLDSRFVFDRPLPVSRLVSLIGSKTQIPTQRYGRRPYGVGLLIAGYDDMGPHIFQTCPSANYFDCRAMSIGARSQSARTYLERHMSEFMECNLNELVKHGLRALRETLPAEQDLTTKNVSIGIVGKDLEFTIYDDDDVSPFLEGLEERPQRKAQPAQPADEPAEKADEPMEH
UniProt Q92598: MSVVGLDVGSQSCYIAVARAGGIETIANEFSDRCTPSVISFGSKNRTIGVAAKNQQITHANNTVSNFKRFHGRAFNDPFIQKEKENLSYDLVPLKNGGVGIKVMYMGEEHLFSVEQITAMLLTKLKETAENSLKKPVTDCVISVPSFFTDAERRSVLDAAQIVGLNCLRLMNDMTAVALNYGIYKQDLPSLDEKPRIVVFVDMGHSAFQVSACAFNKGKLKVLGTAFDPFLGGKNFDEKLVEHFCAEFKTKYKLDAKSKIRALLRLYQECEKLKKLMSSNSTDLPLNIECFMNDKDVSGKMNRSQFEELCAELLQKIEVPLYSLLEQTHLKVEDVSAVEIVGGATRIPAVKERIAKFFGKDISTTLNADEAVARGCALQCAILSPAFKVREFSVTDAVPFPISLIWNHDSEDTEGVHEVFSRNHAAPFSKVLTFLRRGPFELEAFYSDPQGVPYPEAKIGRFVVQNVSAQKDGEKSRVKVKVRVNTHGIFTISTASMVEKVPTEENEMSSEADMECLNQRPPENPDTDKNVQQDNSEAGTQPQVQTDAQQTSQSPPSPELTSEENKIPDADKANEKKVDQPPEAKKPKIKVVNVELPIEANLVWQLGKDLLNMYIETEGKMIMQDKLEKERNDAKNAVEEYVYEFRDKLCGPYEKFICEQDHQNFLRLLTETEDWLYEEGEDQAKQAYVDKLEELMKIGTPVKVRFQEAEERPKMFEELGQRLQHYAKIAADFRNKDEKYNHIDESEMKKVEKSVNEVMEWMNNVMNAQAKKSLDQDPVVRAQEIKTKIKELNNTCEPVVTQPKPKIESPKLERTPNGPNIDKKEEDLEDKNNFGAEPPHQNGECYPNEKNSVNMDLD
UniProt P62191: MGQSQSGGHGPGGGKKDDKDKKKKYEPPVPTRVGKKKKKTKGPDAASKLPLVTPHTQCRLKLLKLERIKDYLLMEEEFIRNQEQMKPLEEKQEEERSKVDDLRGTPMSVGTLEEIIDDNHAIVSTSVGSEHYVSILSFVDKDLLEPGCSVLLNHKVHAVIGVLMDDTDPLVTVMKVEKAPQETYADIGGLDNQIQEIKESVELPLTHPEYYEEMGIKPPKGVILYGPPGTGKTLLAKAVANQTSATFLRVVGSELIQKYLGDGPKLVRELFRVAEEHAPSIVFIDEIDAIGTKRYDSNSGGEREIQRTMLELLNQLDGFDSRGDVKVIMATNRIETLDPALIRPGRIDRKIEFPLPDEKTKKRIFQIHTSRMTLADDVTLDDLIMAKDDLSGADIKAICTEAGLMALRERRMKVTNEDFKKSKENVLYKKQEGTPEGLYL

binding [1]: binds
binding [2]: binds
binding [3]: binds
Molecule: HUWE1 (from UniProt Q7Z6Z7 1-4374)

binding [1]: binds
binding [2]: binds
binding [3]: binds
Molecule: SMC2 (from UniProt O95347 1-1197)

binding [1]: binds
binding [2]: binds
binding [3]: binds
Molecule: EP400 (from UniProt Q96L91 1-3159)

binding [1]: binds
binding [2]: binds
binding [3]: binds
Molecule: MAX (from UniProt P61244 1-160)

binding [2]: binds
Molecule: histone acetyltransferase p300 (from UniProt Q09472 1-2414)

binding [1]: binds
binding [2]: binds
binding [3]: binds
Molecule: PSMA1 (from UniProt P25786 1-263)

binding [1]: binds
binding [2]: binds
binding [3]: binds
Molecule: TRRAP (from UniProt Q9Y4A5 1-3859)

binding [1]: binds
binding [2]: binds
binding [3]: binds
Molecule: HSPH1 (from UniProt Q92598 1-858)

binding [1]: binds
binding [2]: binds
binding [3]: binds
Molecule: PSMC1 (from UniProt P62191 1-440)

binding [1]: binds
binding [2]: binds
binding [3]: binds
Molecule: PSMC2 (from UniProt P35998 1-433)

binding [1]: binds
binding [2]: binds
binding [3]: binds
B1: SLC25A10 (protein, UniProt Q9UBX3 1-287)
chain: MAAEARVSRWYFGGLASCGAACCTHPLDLLKVHLQTQQEVKLRMTGMALRVVRTDGILALYSGLSASLCRQMTYSLTRFAIYETVRDRVAKGSQGPLPFHEKVLLGSVSGLAGGFVGTPADLVNVRMQNDVKLPQGQRRNYAHALDGLYRVAREEGLRRLFSGATMASSRGALVTVGQLSCYDQAKQLVLSTGYLSDNIFTHFVASFIAGGCATFLCQPLDVLKTRLMNSKGEYQGVFHCAVETAKLGPLAFYKGLVPAGIRLIPHTVLTFVFLEQLRKNFGIKVPS

binding [1]: binds
binding [2]: binds
binding [3]: binds
B2: PYCRL (protein, UniProt Q53H96 1-274)
chain: MAAAEPSPRRVGFVGAGRMAGAIAQGLIRAGKVEAQHILASAPTDRNLCHFQALGCRTTHSNQEVLQSCLLVIFATKPHVLPAVLAEVAPVVTTEHILVSVAAGVSLSTLEELLPPNTRVLRVLPNLPCVVQEGAIVMARGRHVGSSETKLLQHLLEACGRCEEVPEAYVDIHTGLSGSGVAFVCAFSEALAEGAVKMGMPSSLAHRIAAQTLLGTAKMLLHEGQHPAQLRSDVCTPGGTTIYGLHALEQGGLRAATMSAVEAATCRAKELSRK

From PMC9984901
